Reference: publication PMC6166740
These are yes or no findings as the source states them, for the method shown. In cells and extracts the contact can be indirect. Some entries that bind do so weakly or less than the wild type. Where a sequence is shown, tags or fusion partners need not be part of it.

Chains of the proteins cited; added tags and fusions are not shown. Residues count along the entry.
UniProt Q5HYA8, residues 37-995: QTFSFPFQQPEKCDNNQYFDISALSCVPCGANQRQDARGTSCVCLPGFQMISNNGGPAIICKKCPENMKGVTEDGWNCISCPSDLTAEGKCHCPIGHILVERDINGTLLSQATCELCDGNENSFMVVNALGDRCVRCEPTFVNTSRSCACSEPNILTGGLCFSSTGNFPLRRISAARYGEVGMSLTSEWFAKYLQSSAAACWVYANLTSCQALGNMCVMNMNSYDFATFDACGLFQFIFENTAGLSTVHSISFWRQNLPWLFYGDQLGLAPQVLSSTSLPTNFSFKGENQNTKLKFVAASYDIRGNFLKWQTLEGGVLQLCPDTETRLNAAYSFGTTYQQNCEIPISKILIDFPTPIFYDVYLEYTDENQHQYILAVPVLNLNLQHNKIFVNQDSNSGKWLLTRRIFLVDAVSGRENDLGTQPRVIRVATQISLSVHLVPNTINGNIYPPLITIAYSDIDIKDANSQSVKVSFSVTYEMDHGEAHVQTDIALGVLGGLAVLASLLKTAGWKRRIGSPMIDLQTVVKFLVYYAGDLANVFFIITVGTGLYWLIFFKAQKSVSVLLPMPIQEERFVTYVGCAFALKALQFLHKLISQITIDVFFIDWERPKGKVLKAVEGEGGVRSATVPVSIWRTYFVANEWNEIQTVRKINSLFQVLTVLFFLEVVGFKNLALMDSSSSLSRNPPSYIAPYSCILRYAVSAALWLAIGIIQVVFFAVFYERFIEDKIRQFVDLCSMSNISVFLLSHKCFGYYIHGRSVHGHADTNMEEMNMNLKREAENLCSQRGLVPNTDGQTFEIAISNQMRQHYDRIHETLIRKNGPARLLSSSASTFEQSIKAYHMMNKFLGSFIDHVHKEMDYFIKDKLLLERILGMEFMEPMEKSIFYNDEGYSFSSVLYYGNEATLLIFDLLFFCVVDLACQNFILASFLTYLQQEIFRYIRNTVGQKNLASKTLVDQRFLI
UniProt P55884: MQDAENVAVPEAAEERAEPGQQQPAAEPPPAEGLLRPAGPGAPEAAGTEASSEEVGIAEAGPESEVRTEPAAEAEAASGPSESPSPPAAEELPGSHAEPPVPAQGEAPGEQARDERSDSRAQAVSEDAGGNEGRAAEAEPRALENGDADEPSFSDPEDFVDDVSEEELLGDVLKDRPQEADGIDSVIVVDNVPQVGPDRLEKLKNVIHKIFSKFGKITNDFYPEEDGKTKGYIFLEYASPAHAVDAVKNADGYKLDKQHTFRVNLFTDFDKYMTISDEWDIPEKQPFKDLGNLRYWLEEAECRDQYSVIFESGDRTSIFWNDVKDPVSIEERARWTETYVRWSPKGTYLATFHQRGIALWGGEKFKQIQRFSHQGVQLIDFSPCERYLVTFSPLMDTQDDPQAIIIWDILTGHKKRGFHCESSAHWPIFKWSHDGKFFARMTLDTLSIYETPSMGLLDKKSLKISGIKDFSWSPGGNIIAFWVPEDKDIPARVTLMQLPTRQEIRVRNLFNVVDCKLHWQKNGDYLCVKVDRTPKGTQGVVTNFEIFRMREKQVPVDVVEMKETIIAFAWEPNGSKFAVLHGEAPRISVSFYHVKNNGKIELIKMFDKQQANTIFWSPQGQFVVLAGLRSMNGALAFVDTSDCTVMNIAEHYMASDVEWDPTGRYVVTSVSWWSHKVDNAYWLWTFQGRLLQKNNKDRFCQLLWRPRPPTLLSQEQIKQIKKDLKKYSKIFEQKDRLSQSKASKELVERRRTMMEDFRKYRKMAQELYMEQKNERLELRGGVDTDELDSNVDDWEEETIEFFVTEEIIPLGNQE

Experiments:
Test in all cases: co-IP; FLAG-tagged and V5-tagged proteins coexpressed in HEK293T cells (calcium phosphate, 24 h); lysis in 1% Triton X-100, 20 mM Tris pH 7.5, 50 mM NaCl, 50 mM NaF, 15 mM Na4P2O7, 0.1 mM EDTA; anti-FLAG M2 agarose beads 2 h; Western blot with anti-V5 and anti-FLAG
[1] = biological target: T1, TTC21B (UniProt Q7Z4L5)
T1 sequence: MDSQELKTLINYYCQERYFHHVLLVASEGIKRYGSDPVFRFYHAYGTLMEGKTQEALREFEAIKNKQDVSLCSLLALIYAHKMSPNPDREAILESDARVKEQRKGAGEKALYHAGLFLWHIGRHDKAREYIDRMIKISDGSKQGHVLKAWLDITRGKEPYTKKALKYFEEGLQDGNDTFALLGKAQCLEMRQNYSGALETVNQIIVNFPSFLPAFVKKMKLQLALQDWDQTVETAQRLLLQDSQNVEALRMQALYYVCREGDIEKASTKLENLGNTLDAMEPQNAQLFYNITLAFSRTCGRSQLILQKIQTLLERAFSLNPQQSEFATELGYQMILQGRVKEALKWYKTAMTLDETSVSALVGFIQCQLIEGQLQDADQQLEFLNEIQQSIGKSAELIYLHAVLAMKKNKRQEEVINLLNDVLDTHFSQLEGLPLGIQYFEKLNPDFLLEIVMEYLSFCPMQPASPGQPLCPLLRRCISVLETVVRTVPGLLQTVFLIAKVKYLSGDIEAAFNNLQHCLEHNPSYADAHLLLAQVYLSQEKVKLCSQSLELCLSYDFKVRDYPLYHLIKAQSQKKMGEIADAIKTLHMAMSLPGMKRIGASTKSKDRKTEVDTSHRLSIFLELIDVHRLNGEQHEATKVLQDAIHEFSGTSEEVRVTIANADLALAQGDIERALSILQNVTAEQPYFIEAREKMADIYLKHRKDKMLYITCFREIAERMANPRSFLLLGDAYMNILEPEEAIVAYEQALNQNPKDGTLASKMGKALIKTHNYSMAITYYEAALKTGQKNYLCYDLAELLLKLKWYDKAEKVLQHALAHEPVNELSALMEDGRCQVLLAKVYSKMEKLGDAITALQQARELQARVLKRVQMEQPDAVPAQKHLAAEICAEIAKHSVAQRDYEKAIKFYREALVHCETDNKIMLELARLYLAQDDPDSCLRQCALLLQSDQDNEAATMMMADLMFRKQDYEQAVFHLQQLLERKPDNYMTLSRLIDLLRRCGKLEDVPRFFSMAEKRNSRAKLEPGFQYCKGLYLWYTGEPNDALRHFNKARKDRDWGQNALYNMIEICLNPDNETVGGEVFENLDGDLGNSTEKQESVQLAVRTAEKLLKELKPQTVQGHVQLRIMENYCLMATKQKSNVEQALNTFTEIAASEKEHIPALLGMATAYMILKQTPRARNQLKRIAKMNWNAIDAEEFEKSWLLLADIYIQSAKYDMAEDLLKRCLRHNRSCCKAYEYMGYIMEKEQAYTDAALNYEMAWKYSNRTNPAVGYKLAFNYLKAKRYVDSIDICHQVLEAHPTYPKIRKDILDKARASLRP

[2] = biological target: TMEM67 (UniProt Q5HYA8)
[3] = biological target: FLAG-tagged EIF3B (UniProt P55884)

Row | Binder | binding [1] | binding [2] | binding [3]
1 | V5-tagged NME3 (enzyme, UniProt Q13232 1-169) MICLVLTIFANLFPAACTGAHERTFLAVKPDGVQRRLVGEIVRRFERKGFKLVALKLVQASEELLREHYAELRERPFYGRLVKYMASGPVVAMVWQGLDVVRTSRALIGATNPADAPPGTIRGDFCIEVGKNLIHGSDSVESARREIALWFRADELLCWEDSAGHWLYE | binds | binds | –
2 | V5-tagged ANKS6 (ankyrin repeat and sterile alpha motif domain-containing 6) (protein, UniProt Q68DC2 1-871) MGEGGLPPAFQLLLRACDQGDTETARRLLEPGAAEPAERGAEPEAGAEPAGAEVAGPGAAAAGAVGAPVPVDCSDEAGNTALQFAAAGGHEPLVRFLLRRGASVNSRNHYGWSALMQAARFGHVSVAHLLLDHGADVNAQNRLGASVLTVASRGGHLGVVKLLLEAGAFVDHHHPSGEQLGLGGSRDEPLDITALMAAIQHGHEAVVRLLMEWGADPNHAARTVGWSPLMLAALTGRLGVAQQLVEKGANPDHLSVLEKTAFEVALDCKHRDLVDYLDPLTTVRPKTDEEKRRPDIFHALKMGNFQLVKEIADEDPSHVNLVNGDGATPLMLAAVTGQLALVQLLVERHADVDKQDSVHGWTALMQATYHGNKEIVKYLLNQGADVTLRAKNGYTAFDLVMLLNDPDTELVRLLASVCMQVNKDKGRPSHQPPLPHSKVRQPWSIPVLPDDKGGLKSWWNRMSNRFRKLKLMQTLPRGLSSNQPLPFSDEPEPALDSTMRAAPQDKTSRSALPDAAPVTKDNGPGSTRGEKEDTLLTTMLRNGAPLTRLPSDKLKAVIPPFLPPSSFELWSSDRSRTRHNGKADPMKTALPQRASRGHPVGGGGTDTTPVRPVKFPSLPRSPASSANSGNFNHSPHSSGGSSGVGVSRHGGELLNRSGGSIDNVLSQIAAQRKKAAGLLEQKPSHRSSPVGPAPGSSPSELPASPAGGSAPVGKKLETSKRPPSGTSTTSKSTSPTLTPSPSPKGHTAESSVSSSSSHRQSKSSGGSSSGTITDEDELTGILKKLSLEKYQPIFEEQEVDMEAFLTLTDGDLKELGIKTDGSRQQILAAISELNAGKGRERQILQETIHNFHSSFESSASNTRAPGNSPCA | – | – | binds
